Results published in the supplement of paper PMC9233669.
Variants at the floor of the assay are shown more often than the library holds them.

Columns and labels:
biotinyl-Ile-oxazolone = assay: self-aminoacylation, catalytic enhancement (BIO) (fold over background); higher = more active; k-Seq, kA / k0A0; sequences stand for … in GGGAAUGGAUCCACAUCUACGAAUUC…UUCACUGCAGACUUGACGAAGCUG
Outline: (§1)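 Working in 50 μL HEPES/NaCl/KCl/MgCl2/CaCl2 buffer with 5% acetonitrile at pH 6.9–7.0, mutagenized RNA pools (0.43 μM; 21-nt variable region) were reacted with 2–1250 μM of each biotinyl-aminoacyl-oxazolone for 90 minutes at room temperature. Streptavidin capture followed, with quantification by triplicate qPCR and Illumina sequencing. Catalytic enhancement is reported as median kA over the uncatalyzed rate, the low-activity peak of a bimodal Gaussian fit to the data.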

biotinyl-Met-oxazolone = assay: self-aminoacylation, catalytic enhancement (BMO) (fold over background); higher = more active; k-Seq, kA / k0A0; sequences stand for … in GGGAAUGGAUCCACAUCUACGAAUUC…UUCACUGCAGACUUGACGAAGCUG
Outline: as §1

biotinyl-Leu-oxazolone = assay: self-aminoacylation, catalytic enhancement (BLO) (fold over background); higher = more active; k-Seq, kA / k0A0; sequences stand for … in GGGAAUGGAUCCACAUCUACGAAUUC…UUCACUGCAGACUUGACGAAGCUG
Outline: as §1

biotinyl-Trp-oxazolone = assay: self-aminoacylation, catalytic enhancement (BWO) (fold over background); higher = more active; k-Seq, kA / k0A0; sequences stand for … in GGGAAUGGAUCCACAUCUACGAAUUC…UUCACUGCAGACUUGACGAAGCUG
Outline: as §1

biotinyl-Phe-oxazolone = assay: self-aminoacylation, catalytic enhancement (BFO) (fold over background); higher = more active; k-Seq, kA / k0A0; sequences stand for … in GGGAAUGGAUCCACAUCUACGAAUUC…UUCACUGCAGACUUGACGAAGCUG
Outline: as §1

biotinyl-Val-oxazolone = assay: self-aminoacylation, catalytic enhancement (BVO) (fold over background); higher = more active; k-Seq, kA / k0A0; sequences stand for … in GGGAAUGGAUCCACAUCUACGAAUUC…UUCACUGCAGACUUGACGAAGCUG
Outline: as §1

Sequence	self-aminoacylation (biotinyl-Ile-oxazolone)	self-aminoacylation (biotinyl-Met-oxazolone)	self-aminoacylation (biotinyl-Leu-oxazolone)	self-aminoacylation (biotinyl-Trp-oxazolone)	self-aminoacylation (biotinyl-Phe-oxazolone)	self-aminoacylation (biotinyl-Val-oxazolone)
AAGUUUCCUAAUAGUCGUAAG [Fam3.1 aminoacylation ribozyme variant]	1.2	1.18	1.07	1.27	2.58	1.07
AAGUUUCCUAAUAUUCGCAAG [Fam3.1 aminoacylation ribozyme variant]	0.935	0.987	0.935	0.649	0.549	0.841
AAGUUUGACAAUAGUCGCAAG [Fam3.1 aminoacylation ribozyme variant]	1.2	0.899	0.979	1.14	1.55	1.32
AAGUUUGAUAAUAGUCGCGAG [Fam3.1 aminoacylation ribozyme variant]	0.981	0.981	1.07	1.13	0.847	0.995
AAGUUUGAUGAUAGUCGCAAG [Fam3.1 aminoacylation ribozyme variant]	1.78	1.49	1.63	1.4	2.4	1.49
AAGUUUGCAAAUAGGCGCAAG [Fam3.1 aminoacylation ribozyme variant]	0.7	0.692	0.746	0.52	0.57	0.733
AAGUUUGCAAAUAGUCGAAAG [Fam3.1 aminoacylation ribozyme variant]	0.956	0.974	0.913	1.04	1.58	0.824
AAGUUUGCAAAUAGUCGGAAG [Fam3.1 aminoacylation ribozyme variant]	1.23	1.02	0.749	1.28	1.25	1.05
AAGUUUGCAAAUUGUCGCAAG [Fam3.1 aminoacylation ribozyme variant]	1.26	1.47	1.57	1.53	0.968	1.19
AAGUUUGCCAAUAGUCGCAAC [Fam3.1 aminoacylation ribozyme variant]	1.14	1.02	1.39	1.59	1.91	1.51
AAGUUUGCCAAUAGUCGCAAG [Fam3.1 aminoacylation ribozyme variant]	1.11	1.06	1.01	1.27	1.78	1.05
AAGUUUGCGAAUAAUCGCAAG [Fam3.1 aminoacylation ribozyme variant]	1.12	1.03	1.18	0.905	1.23	1.06
AAGUUUGCGAAUAGUCGCAAG [Fam3.1 aminoacylation ribozyme variant]	0.93	0.998	0.905	1.01	1.14	0.968
AAGUUUGCGAAUAGUCGCAUG [Fam3.1 aminoacylation ribozyme variant]	1.1	1.04	1.23	1	1.13	1.08
AAGUUUGCUAAAAGUCGAAAG [Fam3.1 aminoacylation ribozyme variant]	0.975	0.85	0.673	2.17	4.76	1.05
AAGUUUGCUAAAAGUCGCACG [Fam3.1 aminoacylation ribozyme variant]	1.31	1.14	1.05	1.58	1.34	1.05
AAGUUUGCUAAGAGUCGCAGG [Fam3.1 aminoacylation ribozyme variant]	1.39	1.91	1.29	1.65	1.37	1.22
AAGUUUGCUAAGAGUCGCUAG [Fam3.1 aminoacylation ribozyme variant]	0.873	0.945	0.63	1.15	0.816	0.71
AAGUUUGCUAAUAAUCGCGAG [Fam3.1 aminoacylation ribozyme variant]	0.983	0.863	0.744	1.47	1.24	0.808
AAGUUUGCUAAUACGCGCAAG [Fam3.1 aminoacylation ribozyme variant]	0.596	0.64	0.517	0.397	0.525	0.696
AAGUUUGCUAAUACUCACAAG [Fam3.1 aminoacylation ribozyme variant]	0.818	0.609	0.685	0.721	0.906	0.909
AAGUUUGCUAAUACUCGCAAU [Fam3.1 aminoacylation ribozyme variant]	0.971	0.964	0.931	0.716	0.831	1
AAGUUUGCUAAUACUCGCAUG [Fam3.1 aminoacylation ribozyme variant]	0.747	0.692	0.578	0.582	0.905	0.697
AAGUUUGCUAAUAGACGAAAG [Fam3.1 aminoacylation ribozyme variant]	0.61	0.578	0.5	0.739	0.618	0.541
AAGUUUGCUAAUAGACGCAGG [Fam3.1 aminoacylation ribozyme variant]	0.73	0.822	0.683	0.602	1.16	0.724
AAGUUUGCUAAUAGCCGCAAC [Fam3.1 aminoacylation ribozyme variant]	0.991	0.845	1.09	1.24	0.851	0.851

Sequence	self-aminoacylation (biotinyl-Ile-oxazolone)	self-aminoacylation (biotinyl-Met-oxazolone)	self-aminoacylation (biotinyl-Leu-oxazolone)	self-aminoacylation (biotinyl-Trp-oxazolone)	self-aminoacylation (biotinyl-Phe-oxazolone)	self-aminoacylation (biotinyl-Val-oxazolone)
AAGUUUGCUAAUAGUCGAAAA [Fam3.1 aminoacylation ribozyme variant]	1.52	2.08	1.48	1.66	1.54	1.54
AAGUUUGCUAAUAGUCGCACU [Fam3.1 aminoacylation ribozyme variant]	1.34	0.854	1.11	1.02	1.19	1.29
AAGUUUGCUAAUAGUCGCGAC [Fam3.1 aminoacylation ribozyme variant]	0.944	1	0.907	1.19	1.05	0.909
AAGUUUGCUAAUAGUCGCGAG [Fam3.1 aminoacylation ribozyme variant]	1.33	1.33	1.29	2	2.01	1.2
AAGUUUGCUAAUAGUCGGACG [Fam3.1 aminoacylation ribozyme variant]	0.808	0.764	0.597	0.829	0.715	0.625
AAGUUUGCUAAUAGUCUCAUG [Fam3.1 aminoacylation ribozyme variant]	0.991	0.887	0.932	1.06	1.5	0.905
AAGUUUGCUAAUAGUGCCAAG [Fam3.1 aminoacylation ribozyme variant]	0.916	1.18	0.727	0.774	1.04	0.799
AAGUUUGCUAAUAGUGUCAAG [Fam3.1 aminoacylation ribozyme variant]	0.832	0.746	0.665	0.941	1.03	0.783
AAGUUUGCUAAUAGUUCCAAG [Fam3.1 aminoacylation ribozyme variant]	1.47	1.48	1.28	1.19	1.72	1.53
AAGUUUGCUAAUAGUUGAAAG [Fam3.1 aminoacylation ribozyme variant]	1.35	1.31	1.15	1.35	1.58	1.14
AAGUUUGCUAAUAGUUGCAAC [Fam3.1 aminoacylation ribozyme variant]	1.06	0.933	0.853	0.841	0.862	0.83
AAGUUUGCUAAUAGUUGCCAG [Fam3.1 aminoacylation ribozyme variant]	1.09	0.937	0.92	1.02	1.29	0.841
AAGUUUGCUAAUAGUUGCUAG [Fam3.1 aminoacylation ribozyme variant]	0.851	0.984	0.785	0.567	1.38	0.801
AAGUUUGCUAAUAUUCGCAAG [Fam3.1 aminoacylation ribozyme variant]	0.945	0.89	0.844	0.933	1.01	0.861
AAGUUUGCUAAUCGUCGCAAA [Fam3.1 aminoacylation ribozyme variant]	1.15	1.22	1.02	1.47	1.38	1.05
AAGUUUGCUAAUCGUCGCAGG [Fam3.1 aminoacylation ribozyme variant]	0.995	1.3	1.18	0.759	1.66	1.06
AAGUUUGCUAAUCGUCUCAAG [Fam3.1 aminoacylation ribozyme variant]	0.934	0.743	0.733	1.05	1.35	0.939
AAGUUUGCUAAUGGUCACAAG [Fam3.1 aminoacylation ribozyme variant]	1.04	0.742	0.864	1.21	0.977	0.817
AAGUUUGCUAAUGGUCUCAAG [Fam3.1 aminoacylation ribozyme variant]	0.718	0.797	0.763	0.883	0.986	0.825
AAGUUUGCUAAUUGUCGAAAG [Fam3.1 aminoacylation ribozyme variant]	0.872	0.93	1.05	0.907	1.08	0.872
AAGUUUGCUAAUUGUCGCAAC [Fam3.1 aminoacylation ribozyme variant]	1.31	1.49	1.04	2.13	1.38	1.45
AAGUUUGCUACUAGUCGCAAA [Fam3.1 aminoacylation ribozyme variant]	1.21	1.19	0.969	1.18	1.53	1.28
AAGUUUGCUACUAGUCGCGAG [Fam3.1 aminoacylation ribozyme variant]	1.49	1.48	1.49	1.35	1.25	1.42
AAGUUUGCUACUAGUUGCAAG [Fam3.1 aminoacylation ribozyme variant]	0.91	0.909	0.738	0.908	0.871	0.685
AAGUUUGCUACUGGUCGCAAG [Fam3.1 aminoacylation ribozyme variant]	0.674	0.75	0.632	1.18	0.917	0.735
